In the supplement of paper PMC7661543:
The effect of the compound repeats well; differences between the knockouts mostly do not.

How the values were obtained:
Assay in all cases: relative cell number vs DMSO control (72 h) (% of DMSO); higher = less growth inhibition (more cells)
[1] = tested on: ZR-75-1
Procedure: (§1)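 QMAP-Seq: a pool of 5 breast cancer cell lines (ZR-75-1, SKBR3, HCC-38, MDA-MB-231, BT-20), each carrying 12 doxycycline-inducible Cas9 sgRNA perturbations (11 knockouts plus non-targeting sgNT), was treated with compounds for 72 h at four 10-fold doses (10 nM-10 uM or 1 nM-1 uM range). Barcodes were amplified and sequenced, and cell number was interpolated from 293T spike-in standard curves. The result is expressed as % of the median of DMSO wells. Two biological replicates.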

[2] = tested on: SKBR3
Procedure: as §1

[3] = tested on: MDA-MB-231
Procedure: as §1

O=[N+]([O-])c1ccc(O)c2ncccc12 [Nitroxoline]
relative cell number
Conditions | [1] | [2] | [3]
sgRNA knockout: sgATF3, 10 nM | 99.1 | 98.8 | 91.3
sgRNA knockout: sgATF3, 100 nM | 96 | 101 | 96.8
sgRNA knockout: sgATF3, 1000 nM | 91.7 | 72.1 | 94.1
sgRNA knockout: sgATF3, 10000 nM | 51.5 | 52.4 | 45.9
sgRNA knockout: sgATF4, 10 nM | 99.2 | 105 | 84.4
sgRNA knockout: sgATF4, 100 nM | 82.9 | 88.5 | 128
sgRNA knockout: sgATF4, 1000 nM | 91 | 82.2 | 79.9
sgRNA knockout: sgATF4, 10000 nM | 50.4 | 56.8 | 43
sgRNA knockout: sgATF6, 10 nM | 44.5 | 96.5 | 101
sgRNA knockout: sgATF6, 100 nM | 117 | 85.9 | 86.2
sgRNA knockout: sgATF6, 1000 nM | 92.5 | 88.2 | 67.6
sgRNA knockout: sgATF6, 10000 nM | 35.7 | 76.6 | 37.2
sgRNA knockout: sgATG7, 10 nM | 77.8 | 80.1 | 86.4
sgRNA knockout: sgATG7, 100 nM | 102 | 94 | 71.9
sgRNA knockout: sgATG7, 1000 nM | 79.1 | 75.3 | 78.8
sgRNA knockout: sgATG7, 10000 nM | 42.2 | 56.7 | 36.9
sgRNA knockout: sgERN1, 10 nM | 87.1 | 97.9 | 82.2
sgRNA knockout: sgERN1, 100 nM | 85.7 | 89.4 | 94.9
sgRNA knockout: sgERN1, 1000 nM | 85.8 | 83.6 | 95.7
sgRNA knockout: sgERN1, 10000 nM | 37.8 | 55.42 | 30.6
sgRNA knockout: sgHSF1, 10 nM | – | 71 | 92.6
sgRNA knockout: sgHSF1, 100 nM | – | 85.9 | 74.4
sgRNA knockout: sgHSF1, 1000 nM | – | 89.1 | 75.6
sgRNA knockout: sgHSF1, 10000 nM | – | 56.5 | 40.5
sgRNA knockout: sgHSF2, 10 nM | 85.5 | 95.4 | 89.6
sgRNA knockout: sgHSF2, 100 nM | 89.9 | 79.5 | 111
sgRNA knockout: sgHSF2, 1000 nM | 87.4 | 89.8 | 87.5
sgRNA knockout: sgHSF2, 10000 nM | 40.6 | 53.2 | 42.8
sgRNA knockout: sgKEAP1, 10 nM | – | 104 | 101
sgRNA knockout: sgKEAP1, 100 nM | – | 85.14 | 87.5
sgRNA knockout: sgKEAP1, 1000 nM | – | 88.4 | 87.6
sgRNA knockout: sgKEAP1, 10000 nM | – | 53 | 35.7
sgRNA knockout: sgNFE2L2, 10 nM | 84.3 | 89.1 | 109
sgRNA knockout: sgNFE2L2, 100 nM | 78.4 | 89.1 | 62.4
sgRNA knockout: sgNFE2L2, 1000 nM | 89.2 | 98.9 | 79.8
sgRNA knockout: sgNFE2L2, 10000 nM | 41 | 53.2 | 38.49
sgRNA knockout: sgSLC35F2, 10 nM | 65.9 | 82.1 | 83.7
sgRNA knockout: sgSLC35F2, 100 nM | 77.4 | 88.9 | 75.4
sgRNA knockout: sgSLC35F2, 1000 nM | 36.6 | 112 | 84
sgRNA knockout: sgSLC35F2, 10000 nM | 40.1 | 57.5 | 38
sgRNA knockout: sgXBP1, 10 nM | 100 | 131 | 95.69
sgRNA knockout: sgXBP1, 100 nM | 87 | 97.2 | 87.5
sgRNA knockout: sgXBP1, 1000 nM | 95.6 | 93.4 | 94.1
sgRNA knockout: sgXBP1, 10000 nM | 33.1 | 68.7 | 32.8

Oc1cccc(-c2nc(N3CCOCC3)c3oc4ncccc4c3n2)c1 [PI103]
relative cell number
Conditions | [1] | [2] | [3]
sgRNA knockout: sgATF3, 10 nM | 155 | 134 | 137
sgRNA knockout: sgATF3, 100 nM | 106 | 121 | 91.7
sgRNA knockout: sgATF3, 1000 nM | 75.9 | 54.8 | 85.5
sgRNA knockout: sgATF3, 10000 nM | 20.2 | 41.8 | 58.4
sgRNA knockout: sgATF4, 10 nM | 125 | 117 | 121
sgRNA knockout: sgATF4, 100 nM | 125.2 | 132 | 173
sgRNA knockout: sgATF4, 1000 nM | 90.4 | 61.3 | 114
sgRNA knockout: sgATF4, 10000 nM | 17.5 | 39.8 | 53.3
sgRNA knockout: sgATF6, 10 nM | 150 | 106 | 120
sgRNA knockout: sgATF6, 100 nM | 115 | 111 | 115
sgRNA knockout: sgATF6, 1000 nM | 53.8 | 50.4 | 80.5
sgRNA knockout: sgATF6, 10000 nM | 23 | 28.8 | 40.4
sgRNA knockout: sgATG7, 10 nM | 103 | 107 | 107
sgRNA knockout: sgATG7, 100 nM | 111 | 160 | 123
sgRNA knockout: sgATG7, 1000 nM | 61.7 | 61.7 | 110
sgRNA knockout: sgATG7, 10000 nM | 28.15 | 27.4 | 46.1
sgRNA knockout: sgERN1, 10 nM | 129 | 97.3 | 105
sgRNA knockout: sgERN1, 100 nM | 120 | 123 | 111
sgRNA knockout: sgERN1, 1000 nM | 71.7 | 53.2 | 122
sgRNA knockout: sgERN1, 10000 nM | 26.3 | 34.3 | 41.6
sgRNA knockout: sgHSF1, 10 nM | – | 133 | 108
sgRNA knockout: sgHSF1, 100 nM | – | 97.7 | 112
sgRNA knockout: sgHSF1, 1000 nM | – | 45.7 | 82.3
sgRNA knockout: sgHSF1, 10000 nM | – | 35.4 | 51.2
sgRNA knockout: sgHSF2, 10 nM | 141 | 123 | 119
sgRNA knockout: sgHSF2, 100 nM | 92.6 | 125 | 123.6
sgRNA knockout: sgHSF2, 1000 nM | 65.5 | 64.6 | 87.5
sgRNA knockout: sgHSF2, 10000 nM | 25.4 | 38.1 | 40.7
sgRNA knockout: sgKEAP1, 10 nM | – | 104 | 139.7
sgRNA knockout: sgKEAP1, 100 nM | – | 119 | 106
sgRNA knockout: sgKEAP1, 1000 nM | – | 57.1 | 74
sgRNA knockout: sgKEAP1, 10000 nM | – | 28.6 | 56
sgRNA knockout: sgNFE2L2, 10 nM | 125 | 103 | 123
sgRNA knockout: sgNFE2L2, 100 nM | 104 | 139 | 124
sgRNA knockout: sgNFE2L2, 1000 nM | 87.6 | 64.2 | 87.7
sgRNA knockout: sgNFE2L2, 10000 nM | 28.3 | 34.4 | 48.7
sgRNA knockout: sgSLC35F2, 10 nM | 132 | 123 | 108
sgRNA knockout: sgSLC35F2, 100 nM | 119 | 124 | 129
sgRNA knockout: sgSLC35F2, 1000 nM | 62.2 | 49.1 | 87.1
sgRNA knockout: sgSLC35F2, 10000 nM | 25.7 | 37.1 | 41.8
sgRNA knockout: sgXBP1, 10 nM | 130 | 128 | 103
sgRNA knockout: sgXBP1, 100 nM | 94.88 | 147 | 119
sgRNA knockout: sgXBP1, 1000 nM | 63 | 70.7 | 84.9
sgRNA knockout: sgXBP1, 10000 nM | 20.4 | 28.4 | 44.7
